Results taken from PubChem BioAssay AID1439 (NMMLSC, 2008).
The whole screen tested about 220,000 compounds, of which about 770 (0.35%) were called active. This list was built around the results that the source calls inconclusive (neither active nor inactive); the mix of calls is not that of the screen. Cut-off read from the data, not from the text of the source: active = binding response below about 49% or above about 150%; inconclusive = no clear call, values can overlap the other calls; inactive = in between.

Protein sequences, listed by entry. Tags and fused reporters are not part of them.
UniProt P09471, whole entry, looked up: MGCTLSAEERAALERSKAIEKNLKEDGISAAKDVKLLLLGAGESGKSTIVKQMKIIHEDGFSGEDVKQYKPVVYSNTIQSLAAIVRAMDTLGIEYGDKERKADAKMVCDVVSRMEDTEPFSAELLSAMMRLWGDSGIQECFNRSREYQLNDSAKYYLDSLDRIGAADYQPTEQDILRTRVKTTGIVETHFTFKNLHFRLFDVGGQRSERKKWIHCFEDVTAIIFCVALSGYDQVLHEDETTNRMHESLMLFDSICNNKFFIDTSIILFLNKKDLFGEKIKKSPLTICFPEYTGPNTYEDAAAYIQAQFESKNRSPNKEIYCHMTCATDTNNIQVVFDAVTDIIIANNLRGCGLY

Each compound was assayed against Guanine nucleotide-binding protein G(o) subunit alpha (Homo sapiens) (UniProt P09471) (assay: RGS7-Galphao binding modulators, primary screen, biochemical, multiplexed bead flow cytometry (AID 1439;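 note: fluorescent Galphao held in activated GDP-AlF4 state binding bead-coupled RGS7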)). Settings: at 10 µM, actives lie on both sides.

Structure (SMILES) | binding response (% of control)
CCOc1ccc2nc(NC(=O)CN3CCOCC3)sc2c1 | inconclusive: 92.7%
COc1ccc2[nH]c(-c3ccccc3)cc2c1 | inconclusive: 92.2%
CN(C)c1ccc(C(=O)Nc2ccc(O)c3c(=O)cc(-c4ccccc4Cl)oc23)cc1 | inconclusive: 92.1%
Cc1ccc(C)c(NC(=O)CCC(=O)N/N=C2/CC(=O)CC(C)(C)C2)c1 | inconclusive: 79.7%
O=C(Nc1ccc(F)c(Cl)c1)c1nsc(Cl)c1Cl | inconclusive: 123%
CC(C)C(c1nnnn1Cc1ccccc1)N1CCN(Cc2ccc3c(c2)OCO3)CC1 (stereo unspecified) | inactive: 97.9%
OCCN1CCN(C(=S)c2ccc(-c3ccccc3)cc2)CC1 | inconclusive: 116%
COc1ccc(N=CC=C2OC(C)(C)C(C)(C)O2)cc1OC | inconclusive: 88.4%
C=CCn1c(=NC(=O)C2COc3ccccc3O2)sc2cccc(OC)c21 (stereo unspecified) | inconclusive: 87.7%
Cc1cc(C)c(S(=O)(=O)N2CCCOC2CNC(=O)C(=O)NCc2ccncc2)c(C)c1 (stereo unspecified) | inactive: 99.6%
COC(=O)CC1C(=O)NCCN1C(=O)Nc1cccc(Cl)c1 (stereo unspecified) | inconclusive: 130%
CC(=O)Nc1ccc(C(=S)NCC2(N(C)C)CCCCC2)cc1 | inconclusive: 100%
CC(C)OC(=O)NCCOC(=O)Nc1ccc(Cl)cc1 | inactive: 101%
COCc1cc(=O)[nH]c(-c2ccc(C(F)(F)F)cc2)n1 | inconclusive: 115%
COc1ccc(CCNC(=O)COc2ccc(N(C)S(=O)(=O)c3ccc(Cl)cc3)cc2)cc1 | inconclusive: 124%
CC(=O)NNC(=O)CCn1c2c(c3ccccc31)CCCC2 | inconclusive: 48.9%
O=C(COc1ccc2ccc(=O)oc2c1)N1CCc2ccccc21 | inconclusive: 93.9%
C/C(=N/NC(=O)c1cc(O)c(O)c(O)c1)c1ccc([N+](=O)[O-])cc1 | active: 6.2%
Cc1cc(=O)[nH]c(N/N=C/C(C)c2ccccc2)n1 (stereo unspecified) | inconclusive: 59.5%
Nc1nc(C(F)(F)F)cc(=O)[nH]1 | inconclusive: 114%
Cc1cc(SCC(=O)OC/C(O)=C(\C#N)c2nc3ccccc3[nH]2)c(C)cc1Br | inconclusive: 88.7%
O=C(NCc1nnc(SCC(=O)N2CCCc3ccccc32)o1)c1c(F)cccc1Cl | inactive: 94.4%
CC(C)CCNC(=O)c1ccc(Cl)c(N)c1 | inconclusive: 60%

Eight of these compounds, reformatted:

| Structure (SMILES) | binding response (% of control) |
| --- | --- |
| CCOc1ccc2nc(NC(=O)CN3CCOCC3)sc2c1 | inconclusive: 92.7% |
| COc1ccc2[nH]c(-c3ccccc3)cc2c1 | inconclusive: 92.2% |
| CN(C)c1ccc(C(=O)Nc2ccc(O)c3c(=O)cc(-c4ccccc4Cl)oc23)cc1 | inconclusive: 92.1% |
| Cc1ccc(C)c(NC(=O)CCC(=O)N/N=C2/CC(=O)CC(C)(C)C2)c1 | inconclusive: 79.7% |
| O=C(Nc1ccc(F)c(Cl)c1)c1nsc(Cl)c1Cl | inconclusive: 123% |
| CC(C)C(c1nnnn1Cc1ccccc1)N1CCN(Cc2ccc3c(c2)OCO3)CC1 (stereo unspecified) | inactive: 97.9% |
| OCCN1CCN(C(=S)c2ccc(-c3ccccc3)cc2)CC1 | inconclusive: 116% |
| COc1ccc(N=CC=C2OC(C)(C)C(C)(C)O2)cc1OC | inconclusive: 88.4% |

Next part.

Structure (SMILES) | binding response (% of control)
CN(C)S(=O)(=O)c1cccc(NC(=O)COC(=O)CNC(=O)c2ccccc2F)c1 | inconclusive: 116%
CCOC(=O)NC1c2ccccc2Oc2ccccc21 | inconclusive: 143%
Cc1ccc[n+](CC(=O)c2ccc(NC(=O)c3ccccc3)cc2)c1 | inconclusive: 102%
COc1ccc(C2=CC(c3ccco3)n3ncnc3N2)cc1 (stereo unspecified) | inconclusive: 94%
COc1ccc(/C=N/Nc2cc(=O)n(C)c(=O)n2C)cc1OC | inactive: 98.2%
Cc1ccc(/C=C/C(=O)N2CC(C)CC(C)C2)o1 (stereo unspecified) | inactive: 99.5%
Cc1nn(-c2ccc(Cl)nn2)c(=O)c2ccccc12 | inconclusive: 88.8%
O=C(NCCNc1ccc2ccccc2c1)c1cccn2c(=O)c3sccc3nc12 | inconclusive: 107%
COc1ccccc1-n1cc(CN2CCN(C3CCCCC3)C(CCO)C2)cn1 (stereo unspecified) | inconclusive: 108%
O=C(Nc1nnc(/C=C/c2ccccc2)s1)c1ccco1 | inconclusive: 362%
CCC12CCCN3CCc4c(n(c5ccccc45)C(O)(C(=O)OC)C1)C32 (stereo unspecified) | inconclusive: 37.3%
O=C(NCc1ccco1)c1ccc(Cl)nc1 | inconclusive: 98%
CCCOc1nc(C)cc(COC)c1C(N)=O | inconclusive: 75.2%
O=C1NCC(O)=C1C=Nc1ccccc1O | inconclusive: 53.4%
CCN(C(=O)c1cc2c(=O)[nH]c3ccc(C)cc3c2s1)c1ccc(OC)cc1 | inconclusive: 116%
Cc1nn(-c2cc(N3CCOCC3)ccc2[N+](=O)[O-])c(=O)c2ccccc12 | active: 161% [activator]
COc1cc(/C=N/n2cnnc2-n2nc(C)cc2C)cc([N+](=O)[O-])c1O | inconclusive: 104%
O=C(CCSCc1cccc(Cl)c1)NCCc1ccccc1 | inactive: 98.8%
COc1cc(/C=N/NC(=O)c2ccc3nc[nH]c3c2)ccc1O | inconclusive: 116%
CC(=O)Cc1nsc(NC(=O)c2ccc(-c3ccc(F)cc3)o2)n1 | inconclusive: 92.6%
CSc1ccccc1C(=O)Nc1cc(C)ccc1C | inconclusive: 123%
CCOc1ccc(C(=O)NC(C)(C)CC)cc1 | inconclusive: 100%
O=C1CCN(S(=O)(=O)c2ccccc2)CCN1CCOCc1ccc(C(F)(F)F)cc1 | inconclusive: 103%
